# Library screen at single concentrations

Protein sequences, listed by entry. Tags and fused reporters are not part of them. Residues count along the entry.
UniProt Q8IDJ8, 1-583: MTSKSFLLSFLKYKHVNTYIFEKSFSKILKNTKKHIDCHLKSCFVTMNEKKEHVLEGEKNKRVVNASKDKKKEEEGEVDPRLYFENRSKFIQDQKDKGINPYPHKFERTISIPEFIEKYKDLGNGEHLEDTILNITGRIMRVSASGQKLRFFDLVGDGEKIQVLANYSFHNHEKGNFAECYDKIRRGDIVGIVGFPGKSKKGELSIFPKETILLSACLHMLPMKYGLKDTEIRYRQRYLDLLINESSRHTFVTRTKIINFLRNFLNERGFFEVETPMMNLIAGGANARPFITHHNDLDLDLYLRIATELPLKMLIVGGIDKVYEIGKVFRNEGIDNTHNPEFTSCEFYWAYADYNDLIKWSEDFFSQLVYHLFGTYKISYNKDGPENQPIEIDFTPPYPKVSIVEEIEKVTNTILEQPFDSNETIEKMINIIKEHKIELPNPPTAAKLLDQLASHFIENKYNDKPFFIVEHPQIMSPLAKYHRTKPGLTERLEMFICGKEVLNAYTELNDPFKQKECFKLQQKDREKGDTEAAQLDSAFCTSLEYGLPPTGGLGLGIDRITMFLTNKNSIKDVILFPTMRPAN
UniProt P9WFT3, whole entry: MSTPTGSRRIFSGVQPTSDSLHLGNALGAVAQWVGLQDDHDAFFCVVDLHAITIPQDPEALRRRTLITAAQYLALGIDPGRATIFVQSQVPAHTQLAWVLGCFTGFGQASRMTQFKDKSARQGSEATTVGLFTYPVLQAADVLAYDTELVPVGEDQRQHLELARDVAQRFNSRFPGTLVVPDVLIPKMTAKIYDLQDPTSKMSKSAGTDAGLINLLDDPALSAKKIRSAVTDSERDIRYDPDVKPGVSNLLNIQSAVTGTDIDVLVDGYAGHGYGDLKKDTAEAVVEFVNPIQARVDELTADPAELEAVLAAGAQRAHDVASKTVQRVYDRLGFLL

Source: ChEMBL document CHEMBL3988442, “University of Dundee, Small-Polar-MMV Screening Library” (2021).

PfKRS1: 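Lysine-tRNA ligase, Plasmodium falciparum 3D7 (UniProt Q8IDJ8). Enzyme assay of the cytosolic lysyl-tRNA synthetase in 384-well plates, read by luminescence. Compounds at 30 µM. Higher reads as stronger inhibition, judged from the few compounds that gave an IC50. About 69,000 compounds were tested under these conditions; 0.071% (about 49) showed 50% or more at least once.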
MtTrpRS: 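Enzyme assay of tryptophanyl-tRNA synthetase; the read-out is not stated. Target: Tryptophan-tRNA ligase, Mycobacterium tuberculosis (UniProt P9WFT3). Tested at 10 µM. Direction is not recorded; retested compounds ran higher, which suggests that high means inhibition. Of about 65,000 compounds tested this way, about 64 (0.098%) reached 50% or more in at least one test.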

The filed quantity is “Percent Effect” (%).
How 0% and 100% were set is not recorded. Most values in the screen are low, and negative values occur.
This is an unselected part of the compounds tested.

CCc1csc(C2CCCN(C(=O)c3ccc(=O)n(C)n3)C2)n1 (centres unmarked) gave PfKRS1: 3.136%; MtTrpRS: 2.649%.
COc1ccc(F)c(CN2CCCC(O)(CNCc3ccon3)C2=O)c1 (centres unmarked) gave PfKRS1: 2.042%; MtTrpRS: -1.511%.
Cc1c(C(=O)NCCC2CN(C)CCO2)n(C)c2c(C)cccc12 (centres unmarked) gave PfKRS1: 1.863%; MtTrpRS: 4.751%.
O=c1cc(CN(Cc2ccco2)C2CC2)nc2ccc(Br)cn12 gave PfKRS1: 4.03%; MtTrpRS: -9.423%.
CCc1nn(C)c(Cl)c1CN1CCC(Cc2nncn2C)CC1 gave PfKRS1: -1.648%; MtTrpRS: -0.2075%.
Cc1nn(CC(=O)N2CCN(c3ccncc3)CC2)c(C)c1Cl gave PfKRS1: 6.396%; MtTrpRS: 3.072%.
CCCOCC1CCN(C(=O)c2cnc(C)nc2O)C1 (centres unmarked) gave PfKRS1: -0.7541%; MtTrpRS: 0.8051%.
Cc1nccn1CCN(C)C(=O)c1cn(-c2ccccc2)nn1 gave PfKRS1: -1.675%; MtTrpRS: 0.000014%.
O=C(c1ncc[nH]1)N1CCC(n2cc(-c3cccc(Cl)c3)nn2)CC1 gave PfKRS1: 0.4412%; MtTrpRS: -0.3846%.
Cn1cc(C(=O)N2CCOc3ccccc32)ccc1=O gave PfKRS1: 3.14%; MtTrpRS: -1.68%.
Cc1ccccc1-c1cc(C(=O)N2CCCC(n3ccnc3C)C2)[nH]n1 (centres unmarked) gave PfKRS1: -1.355%; MtTrpRS: 17.19%.
CNCC(=O)N[C@H]1CN(c2nc(C)c3c(n2)CCCC3)C[C@@H]1C1CC1 gave PfKRS1: 5.228%; MtTrpRS: 0.8215%.
CCOc1ncccc1C(=O)N1CCN(C)C2(CCN(C)CC2)C1 gave PfKRS1: 3.176%; MtTrpRS: -1.715%.
CN(Cc1ccccc1)CC(O)Cn1cnc2ccsc2c1=O (centres unmarked) gave PfKRS1: -1.407%; MtTrpRS: -0.5197%.
O=C1CSC(c2cccnc2)c2c(n(C3CCOCC3)[nH]c2=O)N1 (centres unmarked) gave PfKRS1: 3.443%; MtTrpRS: 1.611%.
CC(c1ccccc1)N1CCC(NC(=O)CCc2ccsc2)CC1 (centres unmarked) gave PfKRS1: 2.146%; MtTrpRS: 2.16%.
COc1ccc(N2CCOCC3(CCCN(c4cnccn4)C3)C2)cc1 (centres unmarked) gave PfKRS1: -0.2053%; MtTrpRS: -2.164%.
O=C(CCCNC(=O)NCC1CCCO1)Nc1ccc(Cl)cc1 (centres unmarked) gave PfKRS1: 2.974%; MtTrpRS: 1.23%.
CC(C)(C)OC(=O)N[C@H]1CCN(C(=O)c2cc(Cl)c[nH]2)C1 gave PfKRS1: 2.43%; MtTrpRS: -1.06%.
CCn1c(Cn2cccn2)nnc1C1CCN(Cc2ccc(C)o2)CC1 gave PfKRS1: 6.091%; MtTrpRS: 3.775%.
Cc1ccc(N(C)S(=O)(=O)c2cc(C(=O)O)cs2)cc1 gave PfKRS1: -1.047%; MtTrpRS: -2.035%.
CC(NC(=O)NCCC(=O)OC(C)(C)C)c1nncn1C (centres unmarked) gave PfKRS1: 1.808%; MtTrpRS: 0.7168%.
Cc1sc(C(=O)NS(C)(=O)=O)cc1-c1ccc(F)cc1 gave PfKRS1: 3.668%; MtTrpRS: -3.783%.
COc1cc(CNC(C)Cn2cccn2)cc(Cl)c1OC (centres unmarked) gave PfKRS1: 1.987%; MtTrpRS: -6.134%.
CC(C1CC1)N(C)Cc1nnc(-c2ccc(Br)s2)o1 (centres unmarked) gave PfKRS1: 5.615%; MtTrpRS: 1.347%.
Cc1nc2ccccn2c1CC(=O)N[C@@H]1CC[C@@H](N2CCOCC2)[C@@H]1O gave PfKRS1: 0.5453%; MtTrpRS: 3.536%.
Cc1cc(C)cc(N2CC(c3nnc(N)s3)CC2=O)c1 (centres unmarked) gave PfKRS1: 2.733%; MtTrpRS: -1.4%.
CCc1nc(C2CCCN2CCCSC)no1 (centres unmarked) gave PfKRS1: -1.732%; MtTrpRS: 0.565%.
COC(=O)C1CCN(C(=O)c2nnc3ccc(C)cc3n2)CC1 gave PfKRS1: 9.249%; MtTrpRS: -0.5913%.
CS(=O)(=O)N1C[C@H](C(=O)Nc2cnccn2)C[C@H]2OCC[C@H]21 gave PfKRS1: 15.35%; MtTrpRS: 13.27%.

Some entries from above, unchanged:

- COC(=O)C1CCN(C(=O)c2nnc3ccc(C)cc3n2)CC1 | PfKRS1: 9.249%; MtTrpRS: -0.5913%
- CCc1csc(C2CCCN(C(=O)c3ccc(=O)n(C)n3)C2)n1 (centres unmarked) | PfKRS1: 3.136%; MtTrpRS: 2.649%